# Measured values from the supplement of paper PMC8728848.
# The other results are listed elsewhere or left out.
# B1: Vd7LysM (Verticillium dahliae) (protein)
# chain: RRGPEPKYPPAAGTSSYCSYWVDYEGDKSCSRVLEDNVVVLKDFARWNPTVGADCSGIKAGNSYCVEAFGEPEPIEVTTTTRAATTTTQPTATTTTFANGIATPQPTQSGMVTNCNKFHWIAEGVSCSQVISFQKITLADFVKWNPSVKSDCSGMWAGVNVCVGVVGSSTDTAKPTTTAPSNGVVTPQPTQPSMVTNCNKFHWIAKGVTCQQVISYQKISLADFVKWNPSVLSDCSGMWAEVQVCVGVIGSTPTTLATTTTTAGNGVSTPLPTQPGMVTNCAKFHWVAKGVTCNQIYSFQKITLEQFVSYNPTVKSDCSGMQAEVQVCVGLIAGTTPTTTRPPTTTAPGNGVSTPQPTQPGMVTNCAKFHWVAKGVTCNQIYSFQKITLEQFVSFNPTVKSDCTGMQAEVNVCVGLIGGNPTPTQTGNGIATPTPIQPGMVSNCKKFHWIAQGVTCQQVISFQKITLADFVKWNTGVGSDCRTMWAETNVCVGV
# Columns and labels:
# Assay in all cases: glycan array binding signal (z-score within array); higher = stronger binding
# Settings in all cases: glycan notation: IUPAC condensed, linker removed
# [1] = biological target: Neu5Ac(a2-6)Gal(b1-4)GlcNAc(b1-3)Gal(b1-4)GlcNAc(b1-3)Gal(b1-4)GlcNAc(b1-2)Man(a1-3)[Neu5Ac(a2-6)Gal(b1-4)GlcNAc(b1-3)Gal(b1-4)GlcNAc(b1-3)Gal(b1-4)GlcNAc(b1-2)Man(a1-6)]GalNAc
# How it was run: (§1)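 Columns mapping to the same glycan were averaged after glycan names were converted to IUPAC-condensed notation. The data come from 3228 arrays in the Consortium for Functional Glycomics database, limited to those with an available protein sequence. Binding is reported as a within-array Z-score averaged across arrays of one protein sequence and across linkers.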
# [2] = biological target: Neu5Ac(a2-6)Gal(b1-4)GlcNAc(b1-3)Gal(b1-4)GlcNAc(b1-3)GalNAc
# How it was run: as §1
# [3] = biological target: Neu5Ac(a2-6)Gal(b1-4)GlcNAc(b1-3)Gal(b1-4)GlcNAc(b1-3)[Neu5Ac(a2-6)Gal(b1-4)GlcNAc(b1-3)Gal(b1-4)GlcNAc(b1-6)]GalNAc
# How it was run: as §1
# [4] = biological target: Neu5Ac(a2-6)Gal(b1-4)GlcNAc(b1-3)Gal(b1-4)GlcNAc(b1-6)[Gal(b1-3)]GalNAc
# How it was run: as §1
# [5] = biological target: Neu5Ac(a2-6)Gal(b1-4)GlcNAc(b1-3)Gal(b1-4)[Fuc(a1-3)]GlcNAc(b1-3)Gal(b1-4)[Fuc(a1-3)]GlcNAc
# How it was run: as §1
# [6] = biological target: Neu5Ac(a2-6)Gal(b1-4)GlcNAc(b1-3)GalNAc
# How it was run: as §1
# [7] = biological target: Neu5Ac(a2-6)Gal(b1-4)GlcNAc(b1-3)[Neu5Ac(a2-6)Gal(b1-4)GlcNAc(b1-6)]GalNAc
# How it was run: as §1
# [8] = biological target: Neu5Ac(a2-6)Gal(b1-4)GlcNAc(b1-6)GalNAc
# How it was run: as §1
# [9] = biological target: Neu5Ac(a2-6)Gal(b1-4)GlcNAc(b1-6)[Gal(b1-3)GlcNAc(b1-3)]Gal(b1-4)Glc
# How it was run: as §1
# [10] = biological target: Neu5Ac(a2-6)Gal(b1-4)GlcNAc(b1-6)[Gal(b1-3)]GalNAc
# How it was run: as §1
# [11] = biological target: Neu5Ac(a2-6)Gal(b1-4)GlcNAc6S
# How it was run: as §1
# [12] = biological target: Neu5Ac(a2-6)GalNAc
# How it was run: as §1
# [13] = biological target: Neu5Ac(a2-6)GalNAc(b1-4)GlcNAc
# How it was run: as §1
# [14] = biological target: Neu5Ac(a2-6)GalNAc(b1-4)GlcNAc6S
# How it was run: as §1
# [15] = biological target: Neu5Ac(a2-6)GlcNAc(b1-4)GlcNAc
# How it was run: as §1
# [16] = biological target: Neu5Ac(a2-6)GlcNAc(b1-4)GlcNAc(b1-4)GlcNAc
# How it was run: as §1
# [17] = biological target: Neu5Ac(a2-8)Neu5Ac
# How it was run: as §1
# [18] = biological target: Neu5Ac(a2-8)Neu5Ac(a2-3)Gal(b1-3)GalNAc(b1-4)[Neu5Ac(a2-3)]Gal(b1-4)Glc
# How it was run: as §1
# [19] = biological target: Neu5Ac(a2-8)Neu5Ac(a2-3)Gal(b1-3)GalNAc(b1-4)[Neu5Ac(a2-8)Neu5Ac(a2-3)]Gal(b1-4)Glc
# How it was run: as §1
# [20] = biological target: Neu5Ac(a2-8)Neu5Ac(a2-3)Gal(b1-4)Glc
# How it was run: as §1
# [21] = biological target: Neu5Ac(a2-8)Neu5Ac(a2-3)Gal(b1-4)GlcNAc
# How it was run: as §1
# [22] = biological target: Neu5Ac(a2-8)Neu5Ac(a2-3)[Gal(b1-3)GalNAc(b1-4)]Gal(b1-4)Glc
# How it was run: as §1
# [23] = biological target: Neu5Ac(a2-8)Neu5Ac(a2-3)[GalNAc(b1-4)]Gal(b1-4)Glc
# How it was run: as §1
# [24] = biological target: Neu5Ac(a2-8)Neu5Ac(a2-8)Neu5Ac
# How it was run: as §1
# [25] = biological target: Neu5Ac(a2-8)Neu5Ac(a2-8)Neu5Ac(a2-3)Gal(b1-4)Glc
# How it was run: as §1
# [26] = biological target: Neu5Ac(a2-8)Neu5Ac(a2-8)Neu5Ac(a2-3)[Gal(b1-3)GalNAc(b1-4)]Gal(b1-4)Glc
# How it was run: as §1
# [27] = biological target: Neu5Ac(a2-8)Neu5Ac(a2-8)Neu5Ac(a2-3)[GalNAc(b1-4)]Gal(b1-4)Glc
# How it was run: as §1
# [28] = biological target: Neu5Ac(a2-8)Neu5Ac(a2-8)Neu5Ac(a2-8)Neu5Ac(a2-3)[GalNAc(b1-4)]Gal(b1-4)Glc
# How it was run: as §1
# [29] = biological target: Neu5Ac(a2-8)Neu5Gc(a2-3)Gal(b1-4)GlcNAc
# How it was run: as §1
# [30] = biological target: Neu5Ac(b2-6)Gal(b1-4)GlcNAc
# How it was run: as §1
# [31] = biological target: Neu5Ac(b2-6)GalNAc
# How it was run: as §1
# [32] = biological target: Neu5Ac9Ac(a2-3)Gal(b1-3)GlcNAc
# How it was run: as §1
# [33] = biological target: Neu5Ac9Ac(a2-3)Gal(b1-4)GlcNAc
# How it was run: as §1
# [34] = biological target: Neu5Ac9Ac(a2-6)Gal(b1-4)GlcNAc
# How it was run: as §1
# [35] = biological target: Neu5Gc(a2-3)Gal(b1-3)GlcNAc
# How it was run: as §1
# [36] = biological target: Neu5Gc(a2-3)Gal(b1-3)[Fuc(a1-4)]GlcNAc
# How it was run: as §1
# [37] = biological target: Neu5Gc(a2-3)Gal(b1-4)Glc
# How it was run: as §1
# [38] = biological target: Neu5Gc(a2-3)Gal(b1-4)GlcNAc
# How it was run: as §1
# [39] = biological target: Neu5Gc(a2-3)Gal(b1-4)GlcNAc(b1-3)Gal(b1-4)GlcNAc(b1-2)Man(a1-3)[Neu5Gc(a2-3)Gal(b1-4)GlcNAc(b1-3)Gal(b1-4)GlcNAc(b1-2)Man(a1-6)]Man(b1-4)GlcNAc(b1-4)GlcNAc
# How it was run: as §1
# [40] = biological target: Neu5Gc(a2-3)Gal(b1-4)[Fuc(a1-3)]GlcNAc
# How it was run: as §1
# [41] = biological target: Neu5Gc(a2-6)Gal(b1-4)GlcNAc
# How it was run: as §1
# [42] = biological target: Neu5Gc(a2-6)GalNAc
# How it was run: as §1
# [43] = biological target: Neu5Gc(a2-8)Neu5Ac(a2-3)Gal(b1-4)GlcNAc
# How it was run: as §1
# [44] = biological target: Neu5Gc(a2-8)Neu5Gc(a2-3)Gal(b1-4)GlcNAc
# How it was run: as §1
# [45] = biological target: Neu5Gc(a2-8)Neu5Gc(a2-3)Gal(b1-4)GlcNAc(b1-3)Gal(b1-4)GlcNAc
# How it was run: as §1
binder,measurement,setting,value
B1,glycan array binding signal (z-score),[1],-0.435
same,glycan array binding signal (z-score),[2],-0.576
same,glycan array binding signal (z-score),[3],1.12
same,glycan array binding signal (z-score),[4],-0.146
same,glycan array binding signal (z-score),[5],1.17
same,glycan array binding signal (z-score),[6],-0.733
same,glycan array binding signal (z-score),[7],0.903
same,glycan array binding signal (z-score),[8],-2.3
same,glycan array binding signal (z-score),[9],0.829
same,glycan array binding signal (z-score),[10],-0.467
same,glycan array binding signal (z-score),[11],0.8
same,glycan array binding signal (z-score),[12],0.058
same,glycan array binding signal (z-score),[13],-2.02
same,glycan array binding signal (z-score),[14],-1.51
same,glycan array binding signal (z-score),[15],-0.836
same,glycan array binding signal (z-score),[16],-0.474
same,glycan array binding signal (z-score),[17],-0.418
same,glycan array binding signal (z-score),[18],-2.4
same,glycan array binding signal (z-score),[19],0.555
same,glycan array binding signal (z-score),[20],0.175
same,glycan array binding signal (z-score),[21],0.115
same,glycan array binding signal (z-score),[22],-0.882
same,glycan array binding signal (z-score),[23],1.03
same,glycan array binding signal (z-score),[24],-0.119
same,glycan array binding signal (z-score),[25],0.063
same,glycan array binding signal (z-score),[26],0.545
same,glycan array binding signal (z-score),[27],-0.713
same,glycan array binding signal (z-score),[28],1.24
same,glycan array binding signal (z-score),[29],1.69
same,glycan array binding signal (z-score),[30],-1.15
same,glycan array binding signal (z-score),[31],-0.577
same,glycan array binding signal (z-score),[32],-0.552
same,glycan array binding signal (z-score),[33],-0.139
same,glycan array binding signal (z-score),[34],2.97
same,glycan array binding signal (z-score),[35],0.641
same,glycan array binding signal (z-score),[36],-1.44
same,glycan array binding signal (z-score),[37],0.212
same,glycan array binding signal (z-score),[38],0.306
same,glycan array binding signal (z-score),[39],-1.03
same,glycan array binding signal (z-score),[40],0.377
same,glycan array binding signal (z-score),[41],0.889
same,glycan array binding signal (z-score),[42],-0.119
same,glycan array binding signal (z-score),[43],-0.354
same,glycan array binding signal (z-score),[44],0.075
same,glycan array binding signal (z-score),[45],-0.709

# Reformatted bar-delimited: part of the list above.
binder | measurement | setting | value
B1 | glycan array binding signal (z-score) | [2] | -0.576
same | glycan array binding signal (z-score) | [3] | 1.12
